This is an account of results in PubChem BioAssay AID330 (DTP/NCI, 2004).

The subject of the assay is P388 leukemia ip, CD2F1 mice, survival T/C. The assay is described as follows: NCI In Vivo Anticancer Drug Screen. Data for tumor model P388 Leukemia (intraperitoneal) in CD2F1 (CDF1) mice. The note with it: T/C endpoint: median survival time, higher T/C = longer survival.
[1] abbreviates: dose: 50.0 mg/kg/injection, schedule: Q04DX003 (ip), vehicle: saline with Tween-80.
Where [2] appears, read: dose: 100.0 mg/kg/injection, schedule: Q01DX009 (ip), vehicle: saline with Tween-80.
[3] abbreviates: dose: 100.0 mg/kg/injection, schedule: Q04DX003 (ip), vehicle: saline with Tween-80.
[4] abbreviates: dose: 200.0 mg/kg/injection, schedule: Q01DX009 (ip), vehicle: saline with Tween-80.
The mark [5] stands for this setting: dose: 100.0 mg/kg/injection, schedule: Q01DX009 (ip), vehicle: Klucel (hydroxypropylcellulose) (HPC).
The mark [6] stands for this setting: dose: 200.0 mg/kg/injection, schedule: Q01DX009 (ip), vehicle: Klucel (hydroxypropylcellulose) (HPC).
[7] abbreviates: dose: 25.0 mg/kg/injection, schedule: Q01DX009 (ip), vehicle: distilled water + Tween-80.
[8] abbreviates: dose: 50.0 mg/kg/injection, schedule: Q04DX003 (ip), vehicle: Klucel (hydroxypropylcellulose) (HPC).
[9] abbreviates: dose: 100.0 mg/kg/injection, schedule: Q04DX003 (ip), vehicle: Klucel (hydroxypropylcellulose) (HPC).
Where [10] appears, read: dose: 200.0 mg/kg/injection, schedule: Q04DX003 (ip), vehicle: Klucel (hydroxypropylcellulose) (HPC).
Setting [11] is: dose: 400.0 mg/kg/injection, schedule: Q04DX003 (ip), vehicle: Klucel (hydroxypropylcellulose) (HPC).
[12] abbreviates: dose: 200.0 mg/kg/injection, schedule: Q01DX005 (ip), vehicle: Klucel (hydroxypropylcellulose) (HPC).
[13] abbreviates: dose: 100.0 mg/kg/injection, schedule: Q01DX009 (ip), vehicle: saline.
Where [14] appears, read: dose: 200.0 mg/kg/injection, schedule: Q01DX009 (ip), vehicle: saline.

The list shows only some results of the screen, not a fair sample: it is rich in T/C values a quarter to a half above the control, in often repeated tests (any T/C) and in doses without a T/C. Other doses and runs of a compound stand elsewhere. T/C gives the treated animals as a percentage of the vehicle group. Some doses have a count of surviving animals in place of a T/C: the source holds a T/C of zero for them, seemingly a mark for toxic or unscored doses. Some doses without a T/C left all or most animals alive at the check, yet need not have been tolerated: the source hardly ever lists a survival T/C far under the control, and the zero likely stands for such cases as well. Survivors were counted at the toxicity check, usually on the fifth day, unless a day is given; later deaths do not show. Schedule codes are those of the source, read here as Q, the interval in days (D) or hours (H), X, the number of doses. Some doses were run more than once; their values stand side by side, smallest first. Where survival is the endpoint, this PubChem deposit counts one and a half times the control or more as active, and values a quarter to a half above the control carry no call in these data; other NCI protocols may use other cut-offs. Some T/C values are followed by the survivors on the day toxicity was checked, most often the fifth; without a count, all were alive then.

Turning to `CC(=N/NC(=S)NCCN1CCCCC1)/C(C)=N\NC(=S)NCCN1CCCCC1`, the survivor count is on record as 0 of 6 (dose: 50.0 mg/kg/injection, schedule: Q01DX009 (ip), vehicle: saline with Tween-80); 3 of 6 under setting [1]; 0 of 6 under setting [2]; 0 of 6 under setting [3]; 0 of 6 under setting [4].
For the molecule `C[As](C)SCC(N)C(=O)O` (stereo unspecified), the survivor count reads like this: under setting [5], 6 of 6; under setting [6], 1 of 6.
Regarding `CCN(CC)CCSCCCNc1cc(C)nc2c1ccc1c2ccc2c(NCCCSCCN(CC)CC)cc(C)nc21`, the survivor count reads like this: (dose: 12.5 mg/kg/injection, schedule: Q01DX009 (ip), vehicle: distilled water + Tween-80) 0 of 6; under setting [7], 1 of 6; (dose: 50.0 mg/kg/injection, schedule: Q01DX009 (ip), vehicle: distilled water + Tween-80) 0 of 6; (dose: 100.0 mg/kg/injection, schedule: Q01DX009 (ip), vehicle: distilled water + Tween-80) 0 of 6.
As to `CSc1cccc(NC(=O)Nc2onc(C)c2C)c1`, the survivor count under setting [5] is given as 6 of 6 and the survivor count under setting [6] was 6 of 6.
Regarding `COc1ccc(-c2nc3c(=O)n(C)c(=O)nc-3n(C)n2)cc1OC`, the survivor count is, setting by setting: (dose: 25.0 mg/kg/injection, schedule: Q04DX003 (ip), vehicle: Klucel (hydroxypropylcellulose) (HPC)) 3 of 6; under setting [8], 1 of 6; under setting [9], 0 of 6 and 1 of 6; under setting [10], 0 of 6; under setting [11], 1 of 6.
As for `C=COC(=O)C(C)(CC)CC(C)C` (stereo unspecified), the survivor count (dose: 200.0 mg/kg/injection, schedule: Q01DX009 (ip), vehicle: other) is 4 of 6.
Regarding `CCCCNC1CC(OC2CC(O)(C(C)=O)Cc3c(O)c4c(c(O)c32)C(=O)c2c(OC)cccc2C4=O)OC(C)C1O` (stereo unspecified), the T/C (dose: 32.0 mg/kg/injection, schedule: Q01DX009 (ip), vehicle: water) was 136 % of control.
As to `O=C1C=CC(=Nc2cccc3c(N=C4C=CC(=O)O4)cccc23)O1`, the survivor count under setting [12] is given as 3 of 6.
`COc1cc(C=O)c(C=O)cc1OC`: the survivor count is, setting by setting: under setting [1], 3 of 6; under setting [3], 0 of 6.
For the molecule `CCC[CH2][Sn]([CH2]CCC)([S]CC(=O)OCc1ccccc1)[S]CC(=O)OCc1ccccc1`, the survivor count was 2 of 6 (dose: 100.0 mg/kg/injection, schedule: Q01DX001 (ip), vehicle: Klucel (hydroxypropylcellulose) (HPC)); 0 of 6 (dose: 200.0 mg/kg/injection, schedule: Q01DX001 (ip), vehicle: Klucel (hydroxypropylcellulose) (HPC)); 0 of 6 (dose: 400.0 mg/kg/injection, schedule: Q01DX001 (ip), vehicle: Klucel (hydroxypropylcellulose) (HPC)).
Regarding `c1c[nH]cn1`, the survivor count is 5 of 6 under setting [13] and 6 of 6 under setting [14].
`COC(=O)Cn1/c(=N\N=C\c2ccc([N+](=O)[O-])cc2)sc2ccccc21`: the survivor count is given as 6 of 6 (dose: 100.0 mg/kg/injection, schedule: Q01DX001 (ip), vehicle: saline with Tween-80) and 6 of 6 (dose: 200.0 mg/kg/injection, schedule: Q01DX001 (ip), vehicle: saline with Tween-80).
With `Nc1nc(-c2cc(-c3cccs3)nc(N)n2)cc(-c2cccs2)n1`, the survivor count (dose: 240.0 mg/kg/injection, schedule: Q01DX005 (ip), vehicle: saline) is 3 of 6.
In the case of `O=C(O)CS(=O)(=O)CC(=O)O`, the survivor count under setting [13] was 6 of 6 and the survivor count under setting [14] is on record as 3 of 6.
Take `O=C1OC2C(I)C3CC1C2C3` (stereo unspecified): the survivor count is reported as 5 of 6 under setting [2] and 4 of 6 under setting [3].
As to `COc1c(O)c(O)cc2c1-c1ccc(OC)c(=O)cc1C(NC(C)=O)CC2` (stereo unspecified), the T/C was 125 and 144 % of control (dose: 5.0 mg/kg/injection, schedule: Q01DX009 (ip), vehicle: water); 137 and 149 % of control (dose: 10.0 mg/kg/injection, schedule: Q01DX009 (ip), vehicle: water). Besides, under “dose: 80.0 mg/kg/injection, schedule: Q01DX009 (ip), vehicle: water”, the survivor count was 4 of 6.
Consider `CC1=CCCC1C1C=CCC1` (stereo unspecified) (tested in a mixture with another compound), for which the T/C under setting [2] was 128 % of control [5 of 6 alive]. Also, the survivor count under setting [4] is recorded as 0 of 6.
Take `Cc1ccc2c(c1)C(=S)NC(=O)C2`: the survivor count under setting [7] is 4 of 4.
As to `Cc1cc2n[se]nc2cc1C`, for the setting “dose: 50.0 mg/kg/injection, schedule: Q01DX009 (ip), vehicle: Klucel (hydroxypropylcellulose) (HPC)”, the survivor count was 5 of 6.
On to `Nc1nc(N)c2nc(Sc3ccc(F)cc3)c(N)nc2n1`, for which the survivor count by setting is: under setting [12], 6 of 6; (dose: 400.0 mg/kg/injection, schedule: Q01DX005 (ip), vehicle: Klucel (hydroxypropylcellulose) (HPC)) 3 of 6.
For `C/C(=N\NC(=S)N1CCC(C)CC1)c1ncccn1`, the survivor count runs as follows: under setting [8], 6 of 6; under setting [9], 0 of 6; under setting [10], 0 of 6; under setting [11], 0 of 6.
For `COc1ccc2[nH]c3c(C)c4cc[n+](C)cc4c(C)c3c2c1`, the T/C is 131 % of control (dose: 0.78 mg/kg/injection, schedule: Q01DX009 (ip), vehicle: saline); 130 and 145 % of control (dose: 1.56 mg/kg/injection, schedule: Q01DX009 (ip), vehicle: saline); 131 % of control (dose: 3.13 mg/kg/injection, schedule: Q01DX009 (ip), vehicle: saline).
For the molecule `O=[N+]([O-])C(Br)(CO)CO`, the survivor count by setting is: (dose: 25.0 mg/kg/injection, schedule: Q01DX009 (ip), vehicle: saline) 3 of 6; (dose: 50.0 mg/kg/injection, schedule: Q01DX009 (ip), vehicle: saline) 0 of 6; under setting [13], 0 of 6.
Take `CCCCOc1ccc2nccc(N/N=C/c3ccc(OC)c4ccccc34)c2c1`: the survivor count runs as follows: (dose: 100.0 mg/kg/injection, schedule: Q01DX005 (ip), vehicle: Klucel (hydroxypropylcellulose) (HPC)) 4 of 6; under setting [12], 0 of 6.
